Reference: PubChem BioAssay AID1259254 (NCATS, 2017)

Test: 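Gene knock-downs that lead to re-replication, shown by excess G2 DNA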 (primary screen)
Cells: human HCT116 colorectal cancer cells
Knock-down reagent: single siRNA against human genes
Timing: 3 days
Detection: 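Imaged Hoechst DNA stain sorts each cell into a cycle phase by DNA amount; per plate, G2 fraction set to 0% for non-targeting and 100% for GMNN siRNA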
Scale: G2 robust z-score: higher = more G2 cells, more excess DNA replication
Rule for the call: 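An siRNA counts as active if its G2 robust z-score lies at least 5 MADs above the screen median; here such calls match roughly 38% of GMNN control or more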
Shown is an unselected part of about 59,000 deposited reagents. Over the whole deposit, about 1,550 (2.6%) are marked active. 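G2 share is only a proxy for re-replication; each gene was hit by three separate siRNAs, and active genes were retested.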 Entries without a mark were called inactive. Reagents against one gene are numbered here. Further read-outs or replicates are left out here. Not given: the amount of reagent.

no.	gene symbol	reagent no.	G2 robust z-score
1	SAE1 (GeneID 10055)	1	1.3
2	SAE1 (GeneID 10055)	2	1.13
3	SAE1 (GeneID 10055)	3	0.918
4	BLOC1S6 (GeneID 26258)	1	4.7
5	BLOC1S6 (GeneID 26258)	2	1.45
6	BLOC1S6 (GeneID 26258)	3	-1.18
7	MRTO4 (GeneID 51154)	1	2.92
8	MRTO4 (GeneID 51154)	2	0.335
9	MRTO4 (GeneID 51154)	3	-0.848
10	URB2 (GeneID 9816)	1	0.216
11	URB2 (GeneID 9816)	2	-0.36
12	URB2 (GeneID 9816)	3	1.12
13	STAG3L3 (GeneID 442578)	1	-0.522
14	STAG3L3 (GeneID 442578)	2	-0.883
15	STAG3L3 (GeneID 442578)	3	2.23
16	TUT1 (GeneID 64852)	1	0.623
17	TUT1 (GeneID 64852)	2	0.229
18	TUT1 (GeneID 64852)	3	-0.00214
19	TAGLN (GeneID 6876)	1	0.452
20	TAGLN (GeneID 6876)	2	0.538
21	TAGLN (GeneID 6876)	3	1.33
22	RAPGEF1 (GeneID 2889)	1	1.5
23	RAPGEF1 (GeneID 2889)	2	9.6 (active)
24	RAPGEF1 (GeneID 2889)	3	2.45

Active calls, of those listed so far:
gene symbol	reagent no.	G2 robust z-score
RAPGEF1 (GeneID 2889)	2	9.6 (active)

The results go on.
no.	gene symbol	reagent no.	G2 robust z-score
25	PRSS21 (GeneID 10942)	1	-0.0683
26	PRSS21 (GeneID 10942)	2	0.122
27	PRSS21 (GeneID 10942)	3	-1.69
28	CD274 (GeneID 29126)	1	3.75
29	CD274 (GeneID 29126)	2	-0.277
30	CD274 (GeneID 29126)	3	1.01
31	ZNF266 (GeneID 10781)	1	0.197
32	ZNF266 (GeneID 10781)	2	-0.486
33	ZNF266 (GeneID 10781)	3	1.79
34	LYN (GeneID 4067)	1	0.984
35	LYN (GeneID 4067)	2	-0.864
36	LYN (GeneID 4067)	3	0.312
37	GP9 (GeneID 2815)	1	-0.889
38	GP9 (GeneID 2815)	2	3.43
39	GP9 (GeneID 2815)	3	-0.69
40	UTP15 (GeneID 84135)	1	4.27
41	UTP15 (GeneID 84135)	2	4.83
42	UTP15 (GeneID 84135)	3	-0.464
43	HAUS7 (GeneID 55559)	1	1.08
44	HAUS7 (GeneID 55559)	2	1.14
45	HAUS7 (GeneID 55559)	3	1.77
46	OXGR1 (GeneID 27199)	1	-1.06
47	OXGR1 (GeneID 27199)	2	1.24
48	OXGR1 (GeneID 27199)	3	1.57
